The values that follow come from patent publication US5162305 (dated 1992).

*: point of attachment. Tos = Cc1ccc(S(=O)(=O)*)cc1; ClZ = O=C(OCc1ccccc1Cl)*; Cbz = O=C(OCc1ccccc1)*; Boc = CC(C)(C)OC(=O)*; OcHex = C1CCC(O*)CC1; OBn = c1ccc(CO*)cc1; Bn = c1ccc(C*)cc1

This series can be described thus: general procedure: solution-phase peptide synthesis; azide method (isoamyl nitrite/HCl-dioxane); OSu active esters; TFA-ONp (p-nitrop). As to conditions: coupling step.
“Boc-His(Tos)-Lys(Cl-Z)-Leu-Gln-Thr(Bzl)-D-Tyr(Cl2 -Bzl)-Pro-Arg(Tos)-Thr(Bzl)-Asp(OcHex)-Val-Gly-Ala-Gly-Thr(Bzl)-Pro--NH2” had a step yield of 89.0%.
With “Boc-His(Tos)-Lys(Cl-Z)-Leu-Gln-Thr(Bzl)-Pro-Arg(Tos)-Thr(Bzl)-Asp(OEt)-Val-Gly-Ala-Gly-Thr(Bzl)-Pro--NH2”, the step yield is given as 87.5%.
“Boc-His(Tos)-Lys(Cl-Z)-Leu-Gln-Thr(Bzl)-Pro-Arg(Tos)-Thr(Bzl)-Asp(OcHex)-Val-Gly-Ala-Gly-Thr(Bzl)-Pro--NH2” registered a step yield of 99.7%.
“Boc-His(Tos)-Lys(Cl-Z)-Leu-Gln-Thr(Bzl)-Pro-Asn-Thr(Bzl)-Asp(OcHex)-Val-Gly-Ala-Gly-Thr(Bzl)-Pro--NH2” yielded a step yield of 83.5%.
Consider “Boc-His(Tos)-Lys(Cl-Z)-Leu-Gln-Thr(Bzl)-Pro-Thr(Bzl)-Asp(OBzl)-Val-Gly-Ala-Gly-Thr(Bzl)-Pro--NH2”, for which the step yield amounted to 91.3%.
Take “Boc-His(Tos)-Lys(Cl-Z)-Leu-Gln-Thr(Bzl)-Tyr(Cl2-Bzl)-Pro-Gln-Thr(Bzl)-Asp(OcHex)-Val-Gly-Ala-Gly-Thr(Bzl)-Pro--NH2”: the step yield was determined as 89.3%.
The result for “Boc-K(Cbz)LS(Bn)QE(OBn)LHK(Bn)LQT(Bn)Y(Bn)PR(Tos)T(Bn)D(OBn)VGAGT(Bn)P-NH2” reads 94.7%; that for “Boc-K(Cbz)LS(Bn)QE(OBn)LHK(ClZ)LQT(Bn)LPR(Tos)T(Bn)D(OcHex)VGAGT(Bn)P-NH2”, 89.6%.
The result for “Boc-K(Cbz)LS(Bn)QE(OBn)LHK(ClZ)LQT(Bn)PGT(Bn)D(OcHex)VGAGT(Bn)P-NH2” reads 76.6%; that for “Boc-K(Cbz)LS(Bn)QE(OcHex)K(ClZ)LQT(Bn)PQT(Bn)D(OcHex)VGAGT(Bn)P-NH2”, 89.6%; that for “Boc-K(Cbz)LS(Bn)QE(OcHex)LAK(ClZ)LQT(Bn)PR(Tos)T(Bn)D(OcHex)VGAGT(Bn)P-NH2”, 98.3%.
As to “Boc-K(Cbz)LS(Bn)QE(OcHex)LD(OcHex)K(ClZ)LQT(Bn)PR(Tos)T(Bn)D(OcHex)VGAGT(Bn)P-NH2”, the step yield turned out to be 89.8%.
On to “Boc-K(Cbz)LS(Bn)QE(OcHex)LFK(ClZ)LQT(Bn)PR(Tos)T(Bn)D(OcHex)VGAGT(Bn)P-NH2”, for which the step yield is listed as 99.0%.
Regarding “Boc-K(Cbz)LS(Bn)QE(OcHex)LGK(ClZ)LGT(Bn)Y(Bn)PR(Tos)T(Bn)D(OBn)VGAGT(Bn)P-NH2”, the step yield came to 95.2%.
With “Boc-K(Cbz)LS(Bn)QE(OcHex)LGK(ClZ)LQT(Bn)PNT(Bn)D(OcHex)VGAGT(Bn)P-NH2”, the step yield worked out at 87.6%.
In turn, “Boc-K(Cbz)LS(Bn)QE(OcHex)LGK(ClZ)LQT(Bn)PQT(Bn)D(OcHex)VGAGT(Bn)P-NH2” displayed a step yield of 82.5%.
In turn, “Boc-K(Cbz)LS(Bn)QE(OcHex)LGNLQT(Bn)PQT(Bn)D(OcHex)VGAGT(Bn)P-NH2” had a step yield of 83.5%.
Regarding “Boc-K(Cbz)LS(Bn)QE(OcHex)LHGLQT(Bn)PR(Tos)T(Bn)D(OcHex)VGAGT(Bn)P-NH2”, the step yield is 99.5%.
“Boc-K(Cbz)LS(Bn)QE(OcHex)LHK(ClZ)QT(Bn)PQT(Bn)D(OBn)VGAGT(Bn)P-NH2” returned a step yield of 88.3%.
“Boc-K(Cbz)LS(Bn)QE(OcHex)LHK(ClZ)QT(Bn)PR(Tos)T(Bn)D(OcHex)VGAGT(Bn)P-NH2” showed a step yield of 94.1%.
“Boc-K(Cbz)LS(Bn)QE(OcHex)LHLQT(Bn)PT(Bn)D(OcHex)VGAGT(Bn)P-NH2” displayed a step yield of 94.9%.
In the case of “Boc-K(Cbz)LS(Bn)QE(OcHex)LK(ClZ)LQT(Bn)PR(Tos)T(Bn)D(OcHex)VGAGT(Bn)P-NH2”, the step yield stood at 90.2%.
As for “Boc-K(Cbz)LS(Bn)QE(OcHex)LLK(ClZ)LQT(Bn)PQT(Bn)D(OcHex)VGAGT(Bn)P-NH2”, the figure is 92.0%.
“Boc-K(Cbz)LS(Bn)QE(OcHex)LLK(ClZ)LQT(Bn)PR(Tos)T(Bn)D(OcHex)VGAGT(Bn)P-NH2” registered a step yield of 92.1%.
The result for “Boc-K(Cbz)LS(Bn)QE(OcHex)LNK(ClZ)LQT(Bn)PQT(Bn)D(OcHex)VGAGT(Bn)P-NH2” reads 88.0%; that for “Boc-K(Cbz)LS(Bn)QE(OcHex)LNK(ClZ)LQT(Bn)Y(Bn)PR(Tos)T(Bn)D(OBn)VGAGT(Bn)P-NH2”, 95.3%; that for “Boc-K(Cbz)LS(Bn)QE(OcHex)LQK(ClZ)LQT(Bn)PNT(Bn)D(OcHex)VGAGT(Bn)P-NH2”, 87.5%.
For the substance “Boc-K(Cbz)LS(Bn)QE(OcHex)LQK(ClZ)LQT(Bn)PR(Tos)T(Bn)D(OcHex)VGAGT(Bn)P-NH2”, the step yield was 95.6%.
“Boc-K(ClZ)LQT(Bn)LPR(Tos)T(Bn)D(OcHex)VGAGT(Bn)P-NH2”: the step yield was found to be 67.0%.
In turn, “Boc-K(ClZ)LQT(Bn)PGT(Bn)D(OcHex)VGAGT(Bn)P-NH2” had a step yield of 86.1%.
“Boc-K(ClZ)LQT(Bn)PNT(Bn)D(OcHex)VGAGT(Bn)P-NH2” registered a step yield of 87.4%.
The substance “Boc-K(ClZ)LQT(Bn)PQT(Bn)D(OBn)VGAGT(Bn)P-NH2” showed a step yield of 95.3%.
As for “Boc-K(ClZ)LQT(Bn)PR(Tos)T(Bn)D(OEt)VGAGT(Bn)P-NH2”, the figure is 96.9%; as for “Boc-K(ClZ)LQT(Bn)PR(Tos)T(Bn)D(OcHex)VGAGT(Bn)P-NH2”, 95.7%.
Substance “Boc-K(ClZ)LQT(Bn)PT(Bn)D(OBn)VGAGT(Bn)P-NH2” yielded a step yield of 98.7%.
As to “Boc-K(ClZ)LS(Bn)QE(OcHex)LGK(ClZ)LQT(Bn)PR(Tos)T(Bn)D(OcHex)VGAGT(Bn)P-NH2”, the step yield was found to be 93.8%.
The result for “Boc-K(ClZ)LS(Bn)QE(OcHex)LNK(ClZ)LQT(Bn)LPQT(Bn)D(OcHex)VGAGT(Bn)P-NH2” reads 89.3%; that for “Boc-K(ClZ)LS(Bn)QE(OcHex)LNK(ClZ)LQT(Bn)PR(Tos)T(Bn)D(OcHex)VGAGT(Bn)P-NH2”, 90.0%.
The result for “Boc-K(ClZ)QT(Bn)PQT(Bn)D(OBn)VGAGT(Bn)P-NH2” reads 95.8%; that for “Boc-K(ClZ)QT(Bn)PR(Tos)T(Bn)D(OcHex)VGAGT(Bn)P-NH2”, 93.0%.
As for “Boc-LHGLQT(Bn)PGT(Bn)D(OcHex)VGAGT(Bn)P-NH2”, the figure is 78.8%; as for “Boc-LHGLQT(Bn)PR(Tos)T(Bn)D(OcHex)VGAGT(Bn)P-NH2”, 98.1%; as for “Boc-LHK(ClZ)LQT(Bn)LPR(Tos)T(Bn)D(OcHex)VGAGT(Bn)P-NH2”, 93.6%.
The substance “Boc-LHK(ClZ)LQT(Bn)PGT(Bn)D(OcHex)VGAGT(Bn)P-NH2” displayed a step yield of 87.6%.
“Boc-LHK(ClZ)LQT(Bn)PQT(Bn)D(OBn)VGAGT(Bn)P-NH2”: the step yield was 91.3%.
As for “Boc-LHK(ClZ)LQT(Bn)PR(Tos)T(Bn)D(OEt)VGAGT(Bn)P-NH2”, the figure is 90.8%; as for “Boc-LHK(ClZ)QT(Bn)PQT(Bn)D(OBn)VGAGT(Bn)P-NH2”, 89.1%; as for “Boc-LHLQT(Bn)PT(Bn)D(OcHex)VGAGT(Bn)P-NH2”, 91.9%.
Consider “Boc-LK(ClZ)LQT(Bn)PQT(Bn)D(OcHex)VGAGT(Bn)P-NH2”, for which the step yield was 80.8%.
Take “Boc-LK(ClZ)LQT(Bn)PR(Tos)T(Bn)D(OcHex)VGAGT(Bn)P-NH2”: the step yield was determined as 95.5%.
Boc-LQT(Bn)PT(Bn)D(OcHex)VGAGT(Bn)P-NH2 returned a step yield of 91.6%.
